Test results: the supplement of paper PMC11732987, “Enantioselective OTUD7B fragment discovery through chemoproteomics screening and high-throughput optimisation” (Communications Chemistry, 2025)
This is one part of the list. The data scatter; read single values as rough.

Sequences of proteins named here, by UniProt entry; tags and fusion partners are left off. A change or cut given only in a name is not applied to a line headed by its entry.
UniProt Q15723: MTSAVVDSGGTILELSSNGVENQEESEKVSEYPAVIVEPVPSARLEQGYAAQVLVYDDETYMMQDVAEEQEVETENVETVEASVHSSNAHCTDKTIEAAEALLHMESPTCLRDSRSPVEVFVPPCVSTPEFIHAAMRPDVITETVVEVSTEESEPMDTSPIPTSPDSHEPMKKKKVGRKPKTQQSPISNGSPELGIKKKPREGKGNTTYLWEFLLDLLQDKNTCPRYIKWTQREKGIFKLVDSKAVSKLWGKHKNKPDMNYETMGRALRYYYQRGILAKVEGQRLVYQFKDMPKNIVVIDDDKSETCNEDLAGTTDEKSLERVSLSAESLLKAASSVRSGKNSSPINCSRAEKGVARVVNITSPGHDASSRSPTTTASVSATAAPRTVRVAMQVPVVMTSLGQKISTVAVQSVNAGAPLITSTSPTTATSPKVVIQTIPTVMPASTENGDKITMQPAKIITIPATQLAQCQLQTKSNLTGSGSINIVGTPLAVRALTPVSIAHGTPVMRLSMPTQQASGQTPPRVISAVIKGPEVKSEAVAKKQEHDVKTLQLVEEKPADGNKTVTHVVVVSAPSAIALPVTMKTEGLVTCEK
UniProt O43237: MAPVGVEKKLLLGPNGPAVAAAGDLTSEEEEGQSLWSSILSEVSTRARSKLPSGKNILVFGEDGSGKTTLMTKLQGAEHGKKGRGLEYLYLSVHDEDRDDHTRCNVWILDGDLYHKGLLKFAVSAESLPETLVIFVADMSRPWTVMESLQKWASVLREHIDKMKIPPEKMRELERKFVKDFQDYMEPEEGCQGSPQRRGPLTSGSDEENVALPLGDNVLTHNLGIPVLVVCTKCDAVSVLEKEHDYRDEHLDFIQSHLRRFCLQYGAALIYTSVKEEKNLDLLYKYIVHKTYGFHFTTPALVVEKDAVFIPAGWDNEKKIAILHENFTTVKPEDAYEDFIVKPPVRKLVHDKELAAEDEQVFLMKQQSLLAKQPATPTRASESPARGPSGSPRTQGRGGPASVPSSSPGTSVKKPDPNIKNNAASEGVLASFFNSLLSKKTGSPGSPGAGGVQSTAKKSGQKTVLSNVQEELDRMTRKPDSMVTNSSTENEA
UniProt Q8WVE0: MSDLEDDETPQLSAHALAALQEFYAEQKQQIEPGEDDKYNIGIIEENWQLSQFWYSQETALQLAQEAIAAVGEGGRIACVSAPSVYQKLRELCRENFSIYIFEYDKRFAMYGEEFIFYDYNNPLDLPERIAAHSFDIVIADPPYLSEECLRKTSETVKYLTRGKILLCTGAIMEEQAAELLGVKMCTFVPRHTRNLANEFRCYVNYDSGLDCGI
UniProt Q14126: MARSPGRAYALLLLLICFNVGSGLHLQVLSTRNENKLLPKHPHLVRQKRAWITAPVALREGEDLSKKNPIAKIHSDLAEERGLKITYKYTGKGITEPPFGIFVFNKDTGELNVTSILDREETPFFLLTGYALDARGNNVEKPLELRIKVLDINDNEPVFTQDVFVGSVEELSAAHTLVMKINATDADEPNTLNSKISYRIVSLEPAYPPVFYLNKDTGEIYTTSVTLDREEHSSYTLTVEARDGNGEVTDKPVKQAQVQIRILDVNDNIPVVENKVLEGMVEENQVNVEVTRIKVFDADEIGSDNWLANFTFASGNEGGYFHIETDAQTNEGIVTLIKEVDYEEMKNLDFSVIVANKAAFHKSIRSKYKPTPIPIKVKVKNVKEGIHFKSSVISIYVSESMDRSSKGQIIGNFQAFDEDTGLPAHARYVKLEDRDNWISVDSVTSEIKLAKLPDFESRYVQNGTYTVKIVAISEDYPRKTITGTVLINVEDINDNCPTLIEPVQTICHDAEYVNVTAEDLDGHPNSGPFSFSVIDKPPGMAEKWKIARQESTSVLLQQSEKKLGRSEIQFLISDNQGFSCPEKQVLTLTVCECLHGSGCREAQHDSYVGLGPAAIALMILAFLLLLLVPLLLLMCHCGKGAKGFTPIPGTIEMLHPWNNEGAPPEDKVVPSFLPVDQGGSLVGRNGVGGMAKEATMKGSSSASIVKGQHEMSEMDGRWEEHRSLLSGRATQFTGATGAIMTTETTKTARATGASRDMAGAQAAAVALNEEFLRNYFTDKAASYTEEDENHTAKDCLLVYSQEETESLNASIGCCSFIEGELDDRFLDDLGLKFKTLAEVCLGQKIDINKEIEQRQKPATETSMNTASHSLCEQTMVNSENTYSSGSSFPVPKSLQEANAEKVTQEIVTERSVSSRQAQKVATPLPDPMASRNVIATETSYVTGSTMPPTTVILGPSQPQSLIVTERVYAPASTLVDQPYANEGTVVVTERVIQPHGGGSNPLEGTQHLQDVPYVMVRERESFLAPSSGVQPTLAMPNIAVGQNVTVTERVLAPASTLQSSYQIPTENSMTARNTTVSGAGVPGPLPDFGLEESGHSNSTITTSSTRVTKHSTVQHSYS
UniProt Q6P2E9: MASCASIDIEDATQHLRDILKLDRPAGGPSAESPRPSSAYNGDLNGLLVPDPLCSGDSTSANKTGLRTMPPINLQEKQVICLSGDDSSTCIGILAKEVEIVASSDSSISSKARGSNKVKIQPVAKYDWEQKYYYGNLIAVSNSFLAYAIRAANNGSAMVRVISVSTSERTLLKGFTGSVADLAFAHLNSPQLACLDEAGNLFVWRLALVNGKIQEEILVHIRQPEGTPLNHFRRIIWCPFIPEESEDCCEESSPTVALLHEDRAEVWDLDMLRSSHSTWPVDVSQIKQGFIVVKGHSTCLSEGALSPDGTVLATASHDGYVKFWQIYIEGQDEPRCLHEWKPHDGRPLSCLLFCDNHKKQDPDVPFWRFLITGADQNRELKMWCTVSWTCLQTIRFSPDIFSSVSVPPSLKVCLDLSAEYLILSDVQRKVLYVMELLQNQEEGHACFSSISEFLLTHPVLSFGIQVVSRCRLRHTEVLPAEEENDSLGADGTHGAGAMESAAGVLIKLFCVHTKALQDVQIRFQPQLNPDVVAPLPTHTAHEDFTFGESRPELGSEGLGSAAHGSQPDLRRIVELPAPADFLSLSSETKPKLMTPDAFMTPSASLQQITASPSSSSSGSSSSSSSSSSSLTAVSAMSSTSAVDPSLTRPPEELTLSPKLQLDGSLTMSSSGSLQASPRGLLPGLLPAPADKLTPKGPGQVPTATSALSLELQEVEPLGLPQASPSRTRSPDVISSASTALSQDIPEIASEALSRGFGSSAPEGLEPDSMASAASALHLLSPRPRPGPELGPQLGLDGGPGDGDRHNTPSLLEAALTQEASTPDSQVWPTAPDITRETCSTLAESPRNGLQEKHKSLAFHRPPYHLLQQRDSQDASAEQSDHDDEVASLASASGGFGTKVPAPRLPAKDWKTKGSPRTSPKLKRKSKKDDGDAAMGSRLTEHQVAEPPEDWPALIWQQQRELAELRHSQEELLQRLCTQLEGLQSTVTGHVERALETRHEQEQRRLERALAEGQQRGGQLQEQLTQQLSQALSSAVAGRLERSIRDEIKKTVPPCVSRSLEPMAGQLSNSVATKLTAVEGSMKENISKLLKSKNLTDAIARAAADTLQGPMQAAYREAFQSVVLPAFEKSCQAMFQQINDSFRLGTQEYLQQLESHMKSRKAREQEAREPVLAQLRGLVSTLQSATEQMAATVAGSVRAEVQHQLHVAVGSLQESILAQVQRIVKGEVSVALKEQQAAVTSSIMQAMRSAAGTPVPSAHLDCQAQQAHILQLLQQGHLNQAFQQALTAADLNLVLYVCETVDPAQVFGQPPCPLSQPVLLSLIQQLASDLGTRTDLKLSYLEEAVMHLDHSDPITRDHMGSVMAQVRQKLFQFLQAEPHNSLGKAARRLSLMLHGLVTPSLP
UniProt Q9NZJ0: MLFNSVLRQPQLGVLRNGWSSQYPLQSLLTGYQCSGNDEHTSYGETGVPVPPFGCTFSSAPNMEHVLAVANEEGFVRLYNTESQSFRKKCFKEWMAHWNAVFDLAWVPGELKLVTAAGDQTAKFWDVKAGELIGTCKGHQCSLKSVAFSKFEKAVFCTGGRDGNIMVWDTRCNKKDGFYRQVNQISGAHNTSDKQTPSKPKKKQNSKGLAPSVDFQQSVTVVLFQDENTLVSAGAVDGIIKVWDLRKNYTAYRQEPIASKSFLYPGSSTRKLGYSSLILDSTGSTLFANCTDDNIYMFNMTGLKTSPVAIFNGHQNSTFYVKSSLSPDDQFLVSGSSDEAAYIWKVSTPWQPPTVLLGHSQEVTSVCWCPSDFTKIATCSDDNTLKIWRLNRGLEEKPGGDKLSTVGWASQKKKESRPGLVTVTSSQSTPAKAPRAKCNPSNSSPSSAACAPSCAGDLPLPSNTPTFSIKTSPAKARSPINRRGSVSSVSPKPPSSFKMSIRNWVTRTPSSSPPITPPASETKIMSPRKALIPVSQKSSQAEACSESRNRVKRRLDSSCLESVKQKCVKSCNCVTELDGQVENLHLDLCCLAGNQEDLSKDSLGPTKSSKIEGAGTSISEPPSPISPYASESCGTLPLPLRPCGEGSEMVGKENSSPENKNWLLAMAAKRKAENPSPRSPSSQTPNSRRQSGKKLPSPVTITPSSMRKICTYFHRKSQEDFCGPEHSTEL
UniProt Q9GZT9: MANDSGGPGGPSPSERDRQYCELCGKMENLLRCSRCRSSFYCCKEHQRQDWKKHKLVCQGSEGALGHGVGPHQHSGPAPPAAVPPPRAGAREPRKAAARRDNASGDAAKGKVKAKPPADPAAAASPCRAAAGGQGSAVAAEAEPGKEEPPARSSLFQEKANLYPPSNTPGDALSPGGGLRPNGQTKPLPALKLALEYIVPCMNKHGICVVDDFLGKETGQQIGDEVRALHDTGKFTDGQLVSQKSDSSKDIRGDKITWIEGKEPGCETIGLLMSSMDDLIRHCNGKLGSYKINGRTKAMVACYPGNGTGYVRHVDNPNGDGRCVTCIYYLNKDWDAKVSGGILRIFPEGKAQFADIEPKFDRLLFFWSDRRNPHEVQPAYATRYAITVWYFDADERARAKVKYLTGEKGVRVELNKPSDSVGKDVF
UniProt P55039: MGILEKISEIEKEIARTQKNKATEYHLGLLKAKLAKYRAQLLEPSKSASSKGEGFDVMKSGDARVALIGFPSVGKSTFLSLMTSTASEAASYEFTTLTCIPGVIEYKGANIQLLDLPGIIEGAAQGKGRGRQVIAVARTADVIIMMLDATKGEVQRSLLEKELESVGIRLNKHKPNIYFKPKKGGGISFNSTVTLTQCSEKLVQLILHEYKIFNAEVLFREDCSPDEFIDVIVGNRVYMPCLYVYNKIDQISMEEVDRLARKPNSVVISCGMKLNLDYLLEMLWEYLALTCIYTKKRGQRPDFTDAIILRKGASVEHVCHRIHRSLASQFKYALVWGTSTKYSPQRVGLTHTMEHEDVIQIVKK
UniProt Q96F86: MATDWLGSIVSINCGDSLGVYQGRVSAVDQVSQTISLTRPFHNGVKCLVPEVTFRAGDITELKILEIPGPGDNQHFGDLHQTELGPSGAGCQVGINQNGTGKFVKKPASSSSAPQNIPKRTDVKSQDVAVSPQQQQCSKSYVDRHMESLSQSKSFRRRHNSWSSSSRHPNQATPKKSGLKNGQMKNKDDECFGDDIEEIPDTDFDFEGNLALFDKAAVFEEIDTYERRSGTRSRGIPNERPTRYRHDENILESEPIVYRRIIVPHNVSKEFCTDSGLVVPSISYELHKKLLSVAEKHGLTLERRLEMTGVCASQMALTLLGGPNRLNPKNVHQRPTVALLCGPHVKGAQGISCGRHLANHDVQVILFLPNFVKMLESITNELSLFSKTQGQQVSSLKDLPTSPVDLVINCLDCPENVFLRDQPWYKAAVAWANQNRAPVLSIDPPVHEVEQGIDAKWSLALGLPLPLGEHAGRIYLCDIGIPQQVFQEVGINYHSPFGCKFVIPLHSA
UniProt Q9UHF1: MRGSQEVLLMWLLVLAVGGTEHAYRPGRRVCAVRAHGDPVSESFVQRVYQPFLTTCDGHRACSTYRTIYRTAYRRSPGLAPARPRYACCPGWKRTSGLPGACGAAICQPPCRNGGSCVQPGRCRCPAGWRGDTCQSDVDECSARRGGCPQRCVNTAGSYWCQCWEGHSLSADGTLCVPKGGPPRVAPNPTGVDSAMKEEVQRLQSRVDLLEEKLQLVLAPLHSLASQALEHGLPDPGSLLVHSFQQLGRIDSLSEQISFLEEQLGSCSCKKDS
UniProt Q9BVC3: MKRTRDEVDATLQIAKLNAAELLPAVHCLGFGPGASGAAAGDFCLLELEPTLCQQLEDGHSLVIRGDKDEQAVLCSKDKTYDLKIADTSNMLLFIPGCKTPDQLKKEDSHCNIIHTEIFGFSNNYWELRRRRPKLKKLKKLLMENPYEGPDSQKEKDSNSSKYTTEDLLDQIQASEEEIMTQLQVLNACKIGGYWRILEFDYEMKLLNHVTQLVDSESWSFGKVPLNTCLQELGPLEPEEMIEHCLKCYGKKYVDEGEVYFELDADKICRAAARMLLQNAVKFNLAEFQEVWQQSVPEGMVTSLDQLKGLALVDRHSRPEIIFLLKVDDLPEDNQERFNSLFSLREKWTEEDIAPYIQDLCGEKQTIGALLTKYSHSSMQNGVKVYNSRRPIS

Compound: ClCC(=O)N[C@H]1CCCc2ccccc12
Experiment: log2 mean competition ratio of IA-DTB cysteine labelling (DMSO/compound) (log2 ratio); higher = stronger cysteine engagement by compound
Conditions: 50 µM; treatment time: 4 h; cell line lysate: HEK293T
Protocol: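 IA-DTB competitive cysteine chemoproteomics in HEK293T RIPA lysate. Lysates were treated with compound 29 or 30 at 50 or 200 µM for 4 h, then IA-DTB (500 µM, 1 h), trypsin-digested, NeutrAvidin-enriched and analysed by diaPASEF. Competition ratio = intensity DMSO / intensity compound (n=4 treated, n=64 DMSO); binding: mean log2 CR ≥ 1 and p ≤ 0.05 plus QC filters. Target is the cysteine site.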

Target | log2 mean competition ratio
ELF2 C110 (UniProt Q15723) | 0.168
DYNC1LI2 C191 (UniProt O43237) | -0.0311
EIF5B C635 (UniProt O60841) | -0.692
EEF1AKMT1 C79 (UniProt Q8WVE0) | -0.386
DYNC2H1 C1104 (UniProt Q8NCM8) | 0.225
DSG2 C840 (UniProt Q14126) | -0.056
DTX3L C175 (UniProt Q8TDB6) | -0.219
EFR3A C538 (UniProt Q14156) | 0.0435
EDC4 C838 (UniProt Q6P2E9) | -0.213
DTL C157 (UniProt Q9NZJ0) | 0.512
EGLN1 C208 (UniProt Q9GZT9) | -0.0309
EHMT2 C126 | 0.148
DTNB C197 | 0.0353
DRG2 C270 (UniProt P55039) | -0.0282
EFNA5 C164 | 0.462
EDC3 C137 (UniProt Q96F86) | -0.123
EGFL7 C56 (UniProt Q9UHF1) | 0.477
DSP C482 (UniProt P15924) | -0.0508
DSCC1 C75 (UniProt Q9BVC3) | -0.0449
EIF2B5 C196 | 0.362

Same assay, conditions: 200 µM; treatment time: 4 h; cell line lysate: HEK293T

Target | log2 mean competition ratio
ELF2 C110 (UniProt Q15723) | -0.25
DYNC1LI2 C191 (UniProt O43237) | -0.0652
EIF5B C635 (UniProt O60841) | -0.0786
EEF1AKMT1 C79 (UniProt Q8WVE0) | 0.0128
DYNC2H1 C1104 (UniProt Q8NCM8) | -0.205
DSG2 C840 (UniProt Q14126) | -0.0429
DTX3L C175 (UniProt Q8TDB6) | 0.153
EFR3A C538 (UniProt Q14156) | -0.169
EDC4 C838 (UniProt Q6P2E9) | 0.0869
DTL C157 (UniProt Q9NZJ0) | 0.191
EGLN1 C208 (UniProt Q9GZT9) | 0.33
EHMT2 C126 | 0.0104
DTNB C197 | 0.0405
DRG2 C270 (UniProt P55039) | -0.181
EFNA5 C164 | 0.12
EDC3 C137 (UniProt Q96F86) | 0.0577
EGFL7 C56 (UniProt Q9UHF1) | 0.276
DSP C482 (UniProt P15924) | -0.246
DSCC1 C75 (UniProt Q9BVC3) | 0.152
EIF2B5 C196 | -0.0426
